Source: patent US20250283871A1, “COMPOSITIONS AND METHODS FOR MODULATING THE INTERACTION BETWEEN SS18-SSX FUSION ONCOPROTEIN AND NUCLEOSOMES” (Dana-Farber Cancer Institute, Inc., priority 2020, published 2025)

Test system: BAF complex subunits and histone proteins
Experiment: Mass spectrometry proteomics of purified HA-SS18 WT and HA-SS18-SSX1 complexes (Tables 5A-5E)
Parameters: species or system human
[1] = HA-SS18SSX1_NE_peptides: protein co-purified with HA-SS18-SSX1 BAF complexes from soluble nuclear extract (NE), HEK-293T cells
[2] = HA-SS18WT_NE_peptides: proteins co-purified with HA-SS18 WT from nuclear extract (NE), HEK-293T
[3] = HA-SS18WT_NE_peptides: HA-SS18 WT complexes purified from nuclear extract (NE), HEK-293T, label = protein identified (Gene Symbol)

B1: STX17 (protein, UniProt P56962 2-302, looked up)
Syntaxin-17: SEDEEKVKLRRLEPAIQKFIKIVIPTDLERLRKHQINIEKYQRCRIWDKLHEEHINAGRTVQQLRSNIREIEKLCLKVRKDDLVLLKRMIDPVKEEASAATAEFLQLHLESVEELKKQFNDEETLLQPPLTRSMTVGGAFHTTEAEASSQSLTQIYALPEIPQDQNAAESWETLEADLIELSQLVTDFSLLVNSQQEKIDSIADHVNSAAVNVEEGTKNLGKAAKYKLAALPVAGALIGGMVGGPIGLLAGFKVAGIAAALGGGVLGFTGGKLIQRKKQKMMEKLTSSCPDLPSQTDKKCS
- Total (peptides) [1]: 1
- Unique (peptides) [1]: 1

B2: PAM16 (protein)
chain: MAKYLAQIIVMGVQVVGRAFARALRQEFAASRAAADARGRAGHRSAAASNLSGLSLQEAQQILNVSKLSPEEVQKNYEHLFKVNDKSVGGSFYLQSKVVRAKERLDEELKIQAQEDREKGQMPHT
- Total (peptides) [1]: 1
- Unique (peptides) [1]: 1
- Total (peptides) [2]: 1
- Unique (peptides) [2]: 1

B3: ACAD9 (protein, UniProt Q9H845 38-621, looked up)
Complex I assembly factor …: AFAKELFLGKIKKKEVFPFPEVSQDELNEINQFLGPVEKFFTEEVDSRKIDQEGKIPDETLEKLKSLGLFGLQVPEEYGGLGFSNTMYSRLGEIISMDGSITVTLAAHQAIGLKGIILAGTEEQKAKYLPKLASGEHIAAFCLTEPASGSDAASIRSRATLSEDKKHYILNGSKVWITNGGLANIFTVFAKTEVVDSDGSVKDKITAFIVERDFGGVTNGKPEDKLGIRGSNTCEVHFENTKIPVENILGEVGDGFKVAMNILNSGRFSMGSVVAGLLKRLIEMTAEYACTRKQFNKRLSEFGLIQEKFALMAQKAYVMESMTYLTAGMLDQPGFPDCSIEAAMVKVFSSEAAWQCVSEALQILGGLGYTRDYPYERILRDTRILLIFEGTNEILRMYIALTGLQHAGRILTTRIHELKQAKVSTVMDTVGRRLRDSLGRTVDLGLTGNHGVVHPSLADSANKFEENTYCFGRTVETLLLRFGKTIMEEQLVLKRVANILINLYGMTAVLSRASRSIRIGLRNHDHEVLLANTFCVEAYLQNLFSLSQLDKYAPENLDEQIKKVSQQILEKRAYICAHPLDRTC
- Total (peptides) [1]: 1
- Unique (peptides) [1]: 1
- Total (peptides) [3]: 3
- Unique (peptides) [3]: 3

B4: SGPL1 (protein, UniProt O95470 1-568, looked up)
Sphingosine-1-phosphate lyase …: MPSTDLLMLKAFEPYLEILEVYSTKAKNYVNGHCTKYEPWQLIAWSVVWTLLIVWGYEFVFQPESLWSRFKKKCFKLTRKMPIIGRKIQDKLNKTKDDISKNMSFLKVDKEYVKALPSQGLSSSAVLEKLKEYSSMDAFWQEGRASGTVYSGEEKLTELLVKAYGDFAWSNPLHPDIFPGLRKIEAEIVRIACSLFNGGPDSCGCVTSGGTESILMACKAYRDLAFEKGIKTPEIVAPQSAHAAFNKAASYFGMKIVRVPLTKMMEVDVRAMRRAISRNTAMLVCSTPQFPHGVIDPVPEVAKLAVKYKIPLHVDACLGGFLIVFMEKAGYPLEHPFDFRVKGVTSISADTHKYGYAPKGSSLVLYSDKKYRNYQFFVDTDWQGGIYASPTIAGSRPGGISAACWAALMHFGENGYVEATKQIIKTARFLKSELENIKGIFVFGNPQLSVIALGSRDFDIYRLSNLMTAKGWNLNQLQFPPSIHFCITLLHARKRVAIQFLKDIRESVTQIMKNPKAKTTGMGAIYGMAQTTVDRNMVAELSSVFLDSLYSTDTVTQGSQMNGSPKPH
- Total (peptides) [1]: 1
- Unique (peptides) [1]: 1
- Total (peptides) [3]: 2
- Unique (peptides) [3]: 2

B5: B3GAT3 (protein, UniProt O94766 1-335, looked up)
Galactosylgalactosylxylosylpro …: MKLKLKNVFLAYFLVSIAGLLYALVQLGQPCDCLPPLRAAAEQLRQKDLRISQLQAELRRPPPAPAQPPEPEALPTIYVVTPTYARLVQKAELVRLSQTLSLVPRLHWLLVEDAEGPTPLVSGLLAASGLLFTHLVVLTPKAQRLREGEPGWVHPRGVEQRNKALDWLRGRGGAVGGEKDPPPPGTQGVVYFADDDNTYSRELFEEMRWTRGVSVWPVGLVGGLRFEGPQVQDGRVVGFHTAWEPSRPFPVDMAGFAVALPLLLDKPNAQFDSTAPRGHLESSLLSHLVDPKDLEPRAANCTRVLVWHTRTEKPKMKQEEQLQRQGRGSDPAIEV
- Total (peptides) [1]: 1
- Unique (peptides) [1]: 1

B6: GSTK1 (protein, UniProt Q9Y2Q3 1-226, looked up)
Glutathione S-transferase …: MGPLPRTVELFYDVLSPYSWLGFEILCRYQNIWNINLQLRPSLITGIMKDSGNKPPGLLPRKGLYMANDLKLLRHHLQIPIHFPKDFLSVMLEKGSLSAMRFLTAVNLEHPEMLEKASRELWMRVWSRNEDITEPQSILAAAEKAGMSAEQAQGLLEKIATPKVKNQLKETTEAACRYGAFGLPITVAHVDGQTHMLFGSDRMELLAHLLGEKWMGPIPPAVNARL
- Total (peptides) [1]: 1
- Unique (peptides) [1]: 1
- Total (peptides) [2]: 1
- Unique (peptides) [2]: 1

B7: ALG1 (protein, UniProt Q9BT22 1-464, looked up)
Chitobiosyldiphosphodolichol …: MAASCLVLLALCLLLPLLLLGGWKRWRRGRAARHVVAVVLGDVGRSPRMQYHALSLAMHGFSVTLLGFCNSKPHDELLQNNRIQIVGLTELQSLAVGPRVFQYGVKVVLQAMYLLWKLMWREPGAYIFLQNPPGLPSIAVCWFVGCLCGSKLVIDWHNYGYSIMGLVHGPNHPLVLLAKWYEKFFGRLSHLNLCVTNAMREDLADNWHIRAVTVYDKPASFFKETPLDLQHRLFMKLGSMHSPFRARSEPEDPVTERSAFTERDAGSGLVTRLRERPALLVSSTSWTEDEDFSILLAALEKFEQLTLDGHNLPSLVCVITGKGPLREYYSRLIHQKHFQHIQVCTPWLEAEDYPLLLGSADLGVCLHTSSSGLDLPMKVVDMFGCCLPVCAVNFKCLHELVKHEENGLVFEDSEELAAQLQMLFSNFPDPAGKLNQFRKNLRESQQLRWDESWVQTVLPLVMDT
- Total (peptides) [1]: 1
- Unique (peptides) [1]: 1
- Total (peptides) [2]: 1
- Unique (peptides) [2]: 1

B8: TADA3 (protein, UniProt O75528 1-432, looked up)
Transcriptional adapter 3: MSELKDCPLQFHDFKSVDHLKVCPRYTAVLARSEDDGIGIEELDTLQLELETLLSSASRRLRVLEAETQILTDWQDKKGDRRFLKLGRDHELGAPPKHGKPKKQKLEGKAGHGPGPGPGRPKSKNLQPKIQEYEFTDDPIDVPRIPKNDAPNRFWASVEPYCADITSEEVRTLEELLKPPEDEAEHYKIPPLGKHYSQRWAQEDLLEEQKDGARAAAVADKKKGLMGPLTELDTKDVDALLKKSEAQHEQPEDGCPFGALTQRLLQALVEENIISPMEDSPIPDMSGKESGADGASTSPRNQNKPFSVPHTKSLESRIKEELIAQGLLESEDRPAEDSEDEVLAELRKRQAELKALSAHNRTKKHDLLRLAKEEVSRQELRQRVRMADNEVMDAFRKIMAARQKKRTPTKKEKDQAWKTLKERESILKLLDG
- Total (peptides) [1]: 1
- Unique (peptides) [1]: 1
- Total (peptides) [2]: 1
- Unique (peptides) [2]: 1

B9: GTF3C2 (protein, UniProt Q8WUA4 1-911, looked up)
General transcription factor …: MDTCGVGYVALGEAGPVGNMTVVDSPGQEVLNQLDVKTSSEMTSAEASVEMSLPTPLPGFEDSPDQRRLPPEQESLSRLEQPDLSSEMSKVSKPRASKPGRKRGGRTRKGPKRPQQPNPPSAPLVPGLLDQSNPLSTPMPKKRGRKSKAELLLLKLSKDLDRPESQSPKRPPEDFETPSGERPRRRAAQVALLYLQELAEELSTALPAPVSCPEGPKVSSPTKPKKIRQPAACPGGEEVDGAPRDEDFFLQVEAEDVEESEGPSESSSEPEPVVPRSTPRGSTSGKQKPHCRGMAPNGLPNHIMAPVWKCLHLTKDFREQKHSYWEFAEWIPLAWKWHLLSELEAAPYLPQEEKSPLFSVQREGLPEDGTLYRINRFSSITAHPERWDVSFFTGGPLWALDWCPVPEGAGASQYVALFSSPDMNETHPLSQLHSGPGLLQLWGLGTLQQESCPGNRAHFVYGIACDNGCIWDLKFCPSGAWELPGTPRKAPLLPRLGLLALACSDGKVLLFSLPHPEALLAQQPPDAVKPAIYKVQCVATLQVGSMQATDPSECGQCLSLAWMPTRPHQHLAAGYYNGMVVFWNLPTNSPLQRIRLSDGSLKLYPFQCFLAHDQAVRTLQWCKANSHFLVSAGSDRKIKFWDLRRPYEPINSIKRFLSTELAWLLPYNGVTVAQDNCYASYGLCGIHYIDAGYLGFKAYFTAPRKGTVWSLSGSDWLGTIAAGDISGELIAAILPDMALNPINVKRPVERRFPIYKADLIPYQDSPEGPDHSSASSGVPNPPKARTYTETVNHHYLLFQDTDLGSFHDLLRREPMLRMQEGEGHSQLCLDRLQLEAIHKVRFSPNLDSYGWLVSGGQSGLVRIHFVRGLASPLGHRMQLESRAHFNAMFQPSSPTRRPGFSPTSHRLLPTP
- Total (peptides) [1]: 1
- Unique (peptides) [1]: 1

B10: KDM4D (protein, UniProt Q6B0I6 1-523, looked up)
Lysine-specific demethylase 4D: METMKSKANCAQNPNCNIMIFHPTKEEFNDFDKYIAYMESQGAHRAGLAKIIPPKEWKARETYDNISEILIATPLQQVASGRAGVFTQYHKKKKAMTVGEYRHLANSKKYQTPPHQNFEDLERKYWKNRIYNSPIYGADISGSLFDENTKQWNLGHLGTIQDLLEKECGVVIEGVNTPYLYFGMWKTTFAWHTEDMDLYSINYLHLGEPKTWYVVPPEHGQRLERLARELFPGSSRGCGAFLRHKVALISPTVLKENGIPFNRITQEAGEFMVTFPYGYHAGFNHGFNCAEAINFATPRWIDYGKMASQCSCGEARVTFSMDAFVRILQPERYDLWKRGQDRAVVDHMEPRVPASQELSTQKEVQLPRRAALGLRQLPSHWARHSPWPMAARSGTRCHTLVCSSLPRRSAVSGTATQPRAAAVHSSKKPSSTPSSTPGPSAQIIHPSNGRRGRGRPPQKLRAQELTLQTPAKRPLLAGTTCTASGPEPEPLPEDGALMDKPVPLSPGLQHPVKASGCSWAPVP
- Total (peptides) [1]: 1
- Unique (peptides) [1]: 1

B11: METTL13 (protein, UniProt Q8N6R0 1-699, looked up)
eEF1A lysine and N-terminal …: MNLLPKSSREFGSVDYWEKFFQQRGKKAFEWYGTYLELCGVLHKYIKPREKVLVIGCGNSELSEQLYDVGYRDIVNIDISEVVIKQMKECNATRRPQMSFLKMDMTQMEFPDASFQVVLDKGTLDAVLTDEEEKTLQQVDRMLAEVGRVLQVGGRYLCISLAQAHILKKAVGHFSREGWMVRVHQVANSQDQVLEAEPQFSLPVFAFIMTKFRPVPGSALQIFELCAQEQRKPVRLESAERLAEAVQERQQYAWLCSQLRRKARLGSVSLDLCDGDTGEPRYTLHVVDSPTVKPSRDNHFAIFIIPQGRETEWLFGMDEGRKQLAASAGFRRLITVALHRGQQYESMDHIQAELSARVMELAPAGMPTQQQVPFLSVGGDIGVRTVQHQDCSPLSGDYVIEDVQGDDKRYFRRLIFLSNRNVVQSEARLLKDVSHKAQKKRKKDRKKQRPADAEDLPAAPGQSIDKSYLCCEHHKAMIAGLALLRNPELLLEIPLALLVVGLGGGSLPLFVHDHFPKSCIDAVEIDPSMLEVATQWFGFSQSDRMKVHIADGLDYIASLAGGGEARPCYDVIMFDVDSKDPTLGMSCPPPAFVEQSFLQKVKSILTPEGVFILNLVCRDLGLKDSVLAGLKAVFPLLYVRRIEGEVNEILFCQLHPEQKLATPELLETAQALERTLRKPGRGWDDTYVLSDMLKTVKIV
- Total (peptides) [1]: 1
- Unique (peptides) [1]: 1
- Total (peptides) [2]: 1
- Unique (peptides) [2]: 1
